The values below come from article PMC11473520.

Protein sequences, listed by entry. Tags and fused reporters are not part of them. Lines headed by an entry give the natural chain unless they say otherwise; changes in a name come on top. Chains listed by the source or under a name are the forms on record and can include a tag or linker.
UniProt Q15554: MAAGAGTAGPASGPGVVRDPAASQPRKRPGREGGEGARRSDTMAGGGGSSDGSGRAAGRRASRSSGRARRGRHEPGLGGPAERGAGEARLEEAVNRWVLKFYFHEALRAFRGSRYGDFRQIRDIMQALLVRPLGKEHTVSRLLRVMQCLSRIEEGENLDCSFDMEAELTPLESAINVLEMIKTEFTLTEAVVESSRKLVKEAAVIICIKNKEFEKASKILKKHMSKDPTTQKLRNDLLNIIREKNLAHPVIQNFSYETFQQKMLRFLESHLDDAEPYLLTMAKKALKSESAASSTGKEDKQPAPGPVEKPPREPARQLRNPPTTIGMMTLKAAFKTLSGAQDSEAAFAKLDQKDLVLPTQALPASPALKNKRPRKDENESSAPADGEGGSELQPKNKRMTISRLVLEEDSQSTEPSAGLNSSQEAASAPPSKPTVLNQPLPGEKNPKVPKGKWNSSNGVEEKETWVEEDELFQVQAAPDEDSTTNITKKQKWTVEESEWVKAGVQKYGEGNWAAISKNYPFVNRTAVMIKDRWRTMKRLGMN
UniProt P09884: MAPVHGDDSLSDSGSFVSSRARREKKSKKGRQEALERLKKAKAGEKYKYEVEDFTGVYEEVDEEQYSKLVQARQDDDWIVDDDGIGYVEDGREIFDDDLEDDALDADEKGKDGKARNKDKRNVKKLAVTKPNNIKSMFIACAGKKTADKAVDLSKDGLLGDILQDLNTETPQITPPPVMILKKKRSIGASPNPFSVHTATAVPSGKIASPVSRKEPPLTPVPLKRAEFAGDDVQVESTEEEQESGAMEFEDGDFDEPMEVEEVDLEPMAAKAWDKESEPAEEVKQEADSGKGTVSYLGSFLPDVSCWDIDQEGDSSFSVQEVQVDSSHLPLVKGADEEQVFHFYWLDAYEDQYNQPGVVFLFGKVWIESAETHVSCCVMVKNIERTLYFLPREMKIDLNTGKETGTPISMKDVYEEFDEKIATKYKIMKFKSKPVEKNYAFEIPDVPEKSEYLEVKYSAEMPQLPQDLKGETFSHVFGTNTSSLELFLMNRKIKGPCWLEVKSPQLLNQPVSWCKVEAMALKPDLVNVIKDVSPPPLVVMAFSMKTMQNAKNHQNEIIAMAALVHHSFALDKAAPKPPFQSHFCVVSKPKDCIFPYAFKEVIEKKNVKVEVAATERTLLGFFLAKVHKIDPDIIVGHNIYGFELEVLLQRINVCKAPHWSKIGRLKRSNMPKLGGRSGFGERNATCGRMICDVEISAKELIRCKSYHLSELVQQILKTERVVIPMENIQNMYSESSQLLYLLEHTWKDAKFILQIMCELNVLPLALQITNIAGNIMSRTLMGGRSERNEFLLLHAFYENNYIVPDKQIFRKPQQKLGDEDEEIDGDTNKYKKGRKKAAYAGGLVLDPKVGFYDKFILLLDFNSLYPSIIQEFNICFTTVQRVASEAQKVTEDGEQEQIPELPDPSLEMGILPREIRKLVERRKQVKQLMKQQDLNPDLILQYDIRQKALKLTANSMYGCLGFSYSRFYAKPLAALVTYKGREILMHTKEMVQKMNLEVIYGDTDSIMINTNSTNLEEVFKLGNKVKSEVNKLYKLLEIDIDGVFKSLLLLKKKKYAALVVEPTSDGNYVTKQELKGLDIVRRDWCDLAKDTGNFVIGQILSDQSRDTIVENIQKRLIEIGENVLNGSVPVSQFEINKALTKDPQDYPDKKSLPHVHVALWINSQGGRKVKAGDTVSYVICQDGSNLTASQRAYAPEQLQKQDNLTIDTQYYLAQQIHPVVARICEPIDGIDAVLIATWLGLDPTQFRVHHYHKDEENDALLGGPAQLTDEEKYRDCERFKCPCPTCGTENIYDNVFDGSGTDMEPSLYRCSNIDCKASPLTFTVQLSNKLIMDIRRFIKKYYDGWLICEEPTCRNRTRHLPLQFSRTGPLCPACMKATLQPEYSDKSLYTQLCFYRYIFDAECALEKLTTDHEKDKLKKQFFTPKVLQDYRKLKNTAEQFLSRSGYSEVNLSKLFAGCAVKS
GFP-tagged POLA1 p.Leu537Ile (P09884, form named): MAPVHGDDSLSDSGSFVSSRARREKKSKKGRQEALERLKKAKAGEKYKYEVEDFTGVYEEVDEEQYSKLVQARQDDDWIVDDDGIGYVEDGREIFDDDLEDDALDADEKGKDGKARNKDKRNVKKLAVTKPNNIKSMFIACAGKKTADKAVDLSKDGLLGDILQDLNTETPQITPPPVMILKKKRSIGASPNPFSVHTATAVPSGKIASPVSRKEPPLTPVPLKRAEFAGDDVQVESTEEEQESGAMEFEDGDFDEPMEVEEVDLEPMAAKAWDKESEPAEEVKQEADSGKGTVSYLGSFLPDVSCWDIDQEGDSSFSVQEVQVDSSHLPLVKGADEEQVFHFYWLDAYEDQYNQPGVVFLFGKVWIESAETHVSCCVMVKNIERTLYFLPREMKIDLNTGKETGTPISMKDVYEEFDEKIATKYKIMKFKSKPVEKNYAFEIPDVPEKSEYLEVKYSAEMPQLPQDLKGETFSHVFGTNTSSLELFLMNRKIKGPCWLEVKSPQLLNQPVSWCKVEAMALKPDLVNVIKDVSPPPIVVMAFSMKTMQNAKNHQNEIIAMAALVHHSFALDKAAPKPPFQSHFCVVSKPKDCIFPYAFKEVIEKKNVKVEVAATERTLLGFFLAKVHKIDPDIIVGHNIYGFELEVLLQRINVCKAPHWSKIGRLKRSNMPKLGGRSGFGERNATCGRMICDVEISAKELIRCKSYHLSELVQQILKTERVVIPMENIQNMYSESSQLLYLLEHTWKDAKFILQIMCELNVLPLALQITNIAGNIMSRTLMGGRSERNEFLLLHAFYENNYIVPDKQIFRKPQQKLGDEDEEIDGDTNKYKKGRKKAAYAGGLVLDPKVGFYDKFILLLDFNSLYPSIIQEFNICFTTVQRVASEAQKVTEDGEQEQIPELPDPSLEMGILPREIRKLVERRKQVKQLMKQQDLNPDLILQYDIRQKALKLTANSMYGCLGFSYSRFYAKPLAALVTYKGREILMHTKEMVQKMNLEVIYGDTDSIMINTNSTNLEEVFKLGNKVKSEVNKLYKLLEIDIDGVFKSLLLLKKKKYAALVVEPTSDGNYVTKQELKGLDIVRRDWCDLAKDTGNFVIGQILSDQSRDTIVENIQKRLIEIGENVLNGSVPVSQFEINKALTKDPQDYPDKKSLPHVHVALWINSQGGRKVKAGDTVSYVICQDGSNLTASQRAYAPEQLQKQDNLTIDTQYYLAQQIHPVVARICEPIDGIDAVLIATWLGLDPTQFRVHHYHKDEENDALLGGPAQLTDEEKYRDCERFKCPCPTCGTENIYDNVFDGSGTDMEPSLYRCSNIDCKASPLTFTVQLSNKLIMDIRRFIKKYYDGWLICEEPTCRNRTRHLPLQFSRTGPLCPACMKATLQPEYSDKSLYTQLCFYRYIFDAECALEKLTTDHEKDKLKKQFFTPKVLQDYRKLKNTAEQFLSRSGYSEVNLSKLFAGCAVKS
GFP-tagged POLA1 p.Arg616Gly (P09884, form named): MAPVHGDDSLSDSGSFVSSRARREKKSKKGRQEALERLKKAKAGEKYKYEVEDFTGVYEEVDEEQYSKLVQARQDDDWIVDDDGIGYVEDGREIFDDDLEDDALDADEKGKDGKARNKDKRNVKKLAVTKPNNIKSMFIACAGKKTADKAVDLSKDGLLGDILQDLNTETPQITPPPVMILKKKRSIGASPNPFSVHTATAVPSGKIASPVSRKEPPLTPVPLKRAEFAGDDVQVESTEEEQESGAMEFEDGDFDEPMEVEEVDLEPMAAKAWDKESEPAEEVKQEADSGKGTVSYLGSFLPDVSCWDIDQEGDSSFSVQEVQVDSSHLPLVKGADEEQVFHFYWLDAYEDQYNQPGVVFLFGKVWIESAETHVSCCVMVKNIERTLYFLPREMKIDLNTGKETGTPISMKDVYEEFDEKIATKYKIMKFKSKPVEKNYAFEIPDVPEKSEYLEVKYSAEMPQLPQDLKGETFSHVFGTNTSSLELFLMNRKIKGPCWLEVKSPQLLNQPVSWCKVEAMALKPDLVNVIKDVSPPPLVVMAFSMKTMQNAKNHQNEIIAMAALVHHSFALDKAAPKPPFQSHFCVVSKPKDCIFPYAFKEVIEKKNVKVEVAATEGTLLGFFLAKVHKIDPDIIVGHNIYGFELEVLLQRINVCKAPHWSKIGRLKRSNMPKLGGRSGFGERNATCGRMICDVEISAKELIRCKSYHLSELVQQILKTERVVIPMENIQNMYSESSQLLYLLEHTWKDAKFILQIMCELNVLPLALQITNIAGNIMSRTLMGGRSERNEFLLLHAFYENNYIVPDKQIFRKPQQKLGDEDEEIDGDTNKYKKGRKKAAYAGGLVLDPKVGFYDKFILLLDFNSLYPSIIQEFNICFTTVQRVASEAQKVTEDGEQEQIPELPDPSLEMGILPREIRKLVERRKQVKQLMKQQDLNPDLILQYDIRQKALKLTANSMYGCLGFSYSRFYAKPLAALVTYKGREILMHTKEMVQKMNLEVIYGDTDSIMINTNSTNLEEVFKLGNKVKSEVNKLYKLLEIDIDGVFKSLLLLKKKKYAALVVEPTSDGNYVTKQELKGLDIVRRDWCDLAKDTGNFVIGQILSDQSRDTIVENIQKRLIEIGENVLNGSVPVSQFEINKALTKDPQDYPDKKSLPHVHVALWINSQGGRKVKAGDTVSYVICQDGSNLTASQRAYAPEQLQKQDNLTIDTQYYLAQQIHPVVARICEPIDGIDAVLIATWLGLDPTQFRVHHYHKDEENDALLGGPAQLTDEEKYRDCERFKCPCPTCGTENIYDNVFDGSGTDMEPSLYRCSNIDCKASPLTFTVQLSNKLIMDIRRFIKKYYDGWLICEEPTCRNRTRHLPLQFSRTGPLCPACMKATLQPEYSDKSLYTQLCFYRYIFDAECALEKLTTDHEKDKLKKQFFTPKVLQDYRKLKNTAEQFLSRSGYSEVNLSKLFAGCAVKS
GFP-tagged POLA1 p.Tyr1146Cys (P09884, form named): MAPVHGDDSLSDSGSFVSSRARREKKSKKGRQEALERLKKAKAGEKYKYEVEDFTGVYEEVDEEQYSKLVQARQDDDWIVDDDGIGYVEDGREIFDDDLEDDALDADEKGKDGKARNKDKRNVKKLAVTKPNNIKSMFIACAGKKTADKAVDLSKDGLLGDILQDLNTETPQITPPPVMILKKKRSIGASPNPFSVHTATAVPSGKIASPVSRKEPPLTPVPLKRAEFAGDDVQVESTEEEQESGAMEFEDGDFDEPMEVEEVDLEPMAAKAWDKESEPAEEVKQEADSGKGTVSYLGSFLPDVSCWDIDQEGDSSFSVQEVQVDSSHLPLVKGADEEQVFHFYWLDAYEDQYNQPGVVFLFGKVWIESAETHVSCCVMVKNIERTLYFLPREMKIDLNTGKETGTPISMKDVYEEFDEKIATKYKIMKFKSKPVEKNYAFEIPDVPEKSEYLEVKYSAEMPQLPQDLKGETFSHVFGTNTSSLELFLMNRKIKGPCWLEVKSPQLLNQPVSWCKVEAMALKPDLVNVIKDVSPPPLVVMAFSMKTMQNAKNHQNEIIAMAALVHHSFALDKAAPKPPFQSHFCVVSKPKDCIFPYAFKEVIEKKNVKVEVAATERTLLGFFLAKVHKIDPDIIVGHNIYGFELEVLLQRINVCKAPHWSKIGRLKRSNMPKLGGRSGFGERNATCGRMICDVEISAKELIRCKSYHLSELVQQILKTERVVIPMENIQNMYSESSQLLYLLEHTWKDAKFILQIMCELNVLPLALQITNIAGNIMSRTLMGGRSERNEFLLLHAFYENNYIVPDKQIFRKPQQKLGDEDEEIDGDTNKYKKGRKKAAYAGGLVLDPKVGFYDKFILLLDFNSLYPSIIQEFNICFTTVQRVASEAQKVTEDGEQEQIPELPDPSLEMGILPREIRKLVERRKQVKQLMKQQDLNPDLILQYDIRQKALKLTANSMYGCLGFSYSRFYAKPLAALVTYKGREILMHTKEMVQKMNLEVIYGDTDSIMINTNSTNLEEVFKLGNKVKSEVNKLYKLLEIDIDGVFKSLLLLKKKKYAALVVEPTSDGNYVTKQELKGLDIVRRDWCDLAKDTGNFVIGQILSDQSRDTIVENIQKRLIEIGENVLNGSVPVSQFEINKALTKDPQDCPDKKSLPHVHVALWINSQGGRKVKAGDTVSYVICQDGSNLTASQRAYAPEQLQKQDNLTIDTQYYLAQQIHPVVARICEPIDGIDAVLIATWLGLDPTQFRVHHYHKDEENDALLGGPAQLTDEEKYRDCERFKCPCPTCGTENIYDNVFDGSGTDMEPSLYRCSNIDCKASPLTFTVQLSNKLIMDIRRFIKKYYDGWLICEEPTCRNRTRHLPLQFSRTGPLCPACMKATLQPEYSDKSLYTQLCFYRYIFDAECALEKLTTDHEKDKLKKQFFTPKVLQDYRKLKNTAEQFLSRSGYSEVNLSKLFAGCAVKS

No constants are given. Whether binding was seen depends on the method and setting. Binding seen in cells or lysates may run through a third protein. Some results given as binding are weak or reduced against the parent protein; the word gives no strength. For part of these data: Tags and fused reporters may be left off the sequences shown.

Sequences and labels used below:
B1: PRIM1 (protein, UniProt P49642 1-420)
chain: METFDPTELPELLKLYYRRLFPYSQYYRWLNYGGVIKNYFQHREFSFTLKDDIYIRYQSFNNQSDLEKEMQKMNPYKIDIGAVYSHRPNQHNTVKLGAFQAQEKELVFDIDMTDYDDVRRCCSSADICPKCWTLMTMAIRIIDRALKEDFGFKHRLWVYSGRRGVHCWVCDESVRKLSSAVRSGIVEYLSLVKGGQDVKKKVHLSEKIHPFIRKSINIIKKYFEEYALVNQDILENKESWDKILALVPETIHDELQQSFQKSHNSLQRWEHLKKVASRYQNNIKNDKYGPWLEWEIMLQYCFPRLDINVSKGINHLLKSPFSVHPKTGRISVPIDLQKVDQFDPFTVPTISFICRELDAISTNEEEKEENEAESDVKHRTRDYKKTSLAPYVKVFEHFLENLDKSRKGELLKKSDLQKDF
B2: PRIM2A (protein, UniProt P49643 1-509)
chain: MEFSGRKWRKLRLAGDQRNASYPHCLQFYLQPPSENISLIEFENLAIDRVKLLKSVENLGVSYVKGTEQYQSKLESELRKLKFSYRENLEDEYEPRRRDHISHFILRLAYCQSEELRRWFIQQEMDLLRFRFSILPKDKIQDFLKDSQLQFEAISDEEKTLREQEIVASSPSLSGLKLGFESIYKIPFADALDLFRGRKVYLEDGFAYVPLKDIVAIILNEFRAKLSKALALTARSLPAVQSDERLQPLLNHLSHSYTGQDYSTQGNVGKISLDQIDLLSTKSFPPCMRQLHKALRENHHLRHGGRMQYGLFLKGIGLTLEQALQFWKQEFIKGKMDPDKFDKGYSYNIRHSFGKEGKRTDYTPFSCLKIILSNPPSQGDYHGCPFRHSDPELLKQKLQSYKISPGGISQILDLVKGTHYQVACQKYFEMIHNVDDCGFSLNHPNQFFCESQRILNGGKDIKKEPIQPETPQPKPSVQKTKDASSALASLNSSLEMDMEGLEDYFSEDS
B3: TEN1-HA (protein, UniProt Q86WV5 1-123)
chain: MMLPKPGTYYLPWEVSAGQVPDGSTLRTFGRLCLYDMIQSRVTLMAQHGSDQHQVLVCTKLVEPFHAQVGSLYIVLGELQHQQDRGSVVKARVLTCVEGMNLPLLEQAIREQRLYKQERGGSQ
B4: MYC-CTC1 (protein, UniProt Q2NKJ3 1-1217)
chain: MAAGRAQVPSSEQAWLEDAQVFIQKTLCPAVKEPNVQLTPLVIDCVKTVWLSQGRNQGSTLPLSYSFVSVQDLKTHQRLPCCSHLSWSSSAYQAWAQEAGPNGNPLPREQLLLLGTLTDLSADLEQECRNGSLYVRDNTGVLSCELIDLDLSWLGHLFLFPRWSYLPPARWNSSGEGHLELWDAPVPVFPLTISPGPVTPIPVLYPESASCLLRLRNKLRGVQRNLAGSLVRLSALVKSKQKAYFILSLGRSHPAVTHVSIIVQVPAQLVWHRALRPGTAYVLTELRVSKIRGQRQHVWMTSQSSRLLLLKPECVQELELELEGPLLEADPKPLPMPSNSEDKKDPESLVRYSRLLSYSGAVTGVLNEPAGLYELDGQLGLCLAYQQFRGLRRVMRPGVCLQLQDVHLLQSVGGGTRRPVLAPCLRGAVLLQSFSRQKPGAHSSRQAYGASLYEQLVWERQLGLPLYLWATKALEELACKLCPHVLRHHQFLQHSSPGSPSLGLQLLAPTLDLLAPPGSPVRNAHNEILEEPHHCPLQKYTRLQTPSSFPTLATLKEEGQRKAWASFDPKALLPLPEASYLPSCQLNRRLAWSWLCLLPSAFCPAQVLLGVLVASSHKGCLQLRDQSGSLPCLLLAKHSQPLSDPRLIGCLVRAERFQLIVERDVRSSFPSWKELSMPGFIQKQQARVYVQFFLADALILPVPRPCLHSATPSTPQTDPTGPEGPHLGQSRLFLLCHKEALMKRNFCVPPGASPEVPKPALSFYVLGSWLGGTQRKEGTGWGLPEPQGNDDNDQKVHLIFFGSSVRWFEFLHPGQVYRLIAPGPATPMLFEKDGSSCISRRPLELAGCASCLTVQDNWTLELESSQDIQDVLDANKSLPESSLTDLLSDNFTDSLVSFSAEILSRTLCEPLVASLWMKLGNTGAMRRCVKLTVALETAECEFPPHLDVYIEDPHLPPSLGLLPGARVHFSQLEKRVSRSHNVYCCFRSSTYVQVLSFPPETTISIPLPHIYLAELLQGGQSPFQATASCHIVSVFSLQLFWVCAYCTSICRQGKCTRLGSTCPTQTAISQAIIRLLVEDGTAEAVVTCRNHHVAAALGLCPREWASLLDFVQVPGRVVLQFAGPGAQLESSARVDEPMTMFLWTLCTSPSVLRPIVLSFELERKPSKIVPLEPPRLQRFQCGELPFLTHVNPRLRLSCLSIRESEYSSSLGILASSC
B5: FLAG-STN1 (protein, UniProt Q9H668 1-368)
chain: MQPGSSRCEEETPSLLWGLDPVFLAFAKLYIRDILDMKESRQVPGVFLYNGHPIKQVDVLGTVIGVRERDAFYSYGVDDSTGVINCICWKKLNTESVSAAPSAARELSLTSQLKKLQETIEQKTKIEIGDTIRVRGSIRTYREEREIHATTYYKVDDPVWNIQIARMLELPTIYRKVYDQPFHSSALEKEEALSNPGALDLPSLTSLLSEKAKEFLMENRVQSFYQQELEMVESLLSLANQPVIHSASSDQVNFKKDTTSKAIHSIFKNAIQLLQEKGLVFQKDDGFDNLYYVTREDKDLHRKIHRIIQQDCQKPNHMEKGCHFLHILACARLSIRPGLSEAVLQQVLELLEDQSDIVSTMEHYYTAF

The target of the first assay is TRF2 (human (endogenous in patient and control cells)) (UniProt Q15554). Briefly: proximity ligation; Duolink in situ kit on fixed control and POT1 patient cells; PLA dots counted by confocal imaging in the DAPI-stained region.
On to 53BP1 (from UniProt Q12888 1-1972), for which the binding result was “binds”.

Consider RPA70 (from UniProt P27694 1-616), for which the binding entry is “binds”.

Another assay addresses GFP-tagged POLA1 p.Leu537Ile (human) (UniProt P09884). Briefly: co-IP; GFP-TRAP agarose beads on lysates of 293T cells expressing GFP-tagged POLA1 (wild type or variant) together with MYC-CTC1, FLAG-STN1 and TEN1-HA; western blot of input and pull-down.
On to B1, for which the binding entry is reported as “binds weakly”.

For the molecule B2, the binding entry is listed as “binds weakly”.

As to B3, the binding entry is listed as “binds weakly”.

B4: the binding entry is on record as “binds weakly”.

With B5, the binding entry was “binds weakly”.

The target of the next assay is GFP-tagged wild-type POLA1 (human) (UniProt P09884). The assay is described as above.
B1: the binding entry was “binds”.

Regarding B2, the binding entry is given as “binds”.

With B3, the binding result was “binds”.

B4: the binding entry is given as “binds”.

As for B5, the binding result is reported as “binds”.

Another assay concerns the target GFP-tagged POLA1 p.P496S (common variant) (human) (UniProt P09884). The assay is described as above.
For B1, the binding entry is recorded as “binds”.

Turning to B2, the binding entry is “binds”.

In the case of B3, the binding result is on record as “binds”.

In the case of B4, the binding result is “binds”.

For the molecule B5, the binding result is “binds”.

In a further assay the target is GFP-tagged POLA1 p.Arg616Gly (human) (UniProt P09884). Described as above.
Turning to B1, the binding entry is given as “binds weakly”.

Take B2: the binding entry is reported as “binds weakly”.

Consider B3, for which the binding result is reported as “binds weakly”.

B4: the binding result is given as “binds weakly”.

Regarding B5, the binding result is “binds weakly”.

The target in another assay is GFP-tagged POLA1 p.Tyr1146Cys (human) (UniProt P09884). The assay is described as above.
On to B1, for which the binding entry was “binds weakly”.

For B2, the binding entry is “binds weakly”.

Turning to B3, the binding entry is given as “binds weakly”.

For B4, the binding entry was “binds weakly”.

As for B5, the binding entry is recorded as “binds weakly”.
